Assay: in vitro
Settings: male, CD-1, mouse, microsomes, pH 7.4

- microsomal CLint at 1 µM: 45.1 µL/min/mg
SMILES: CN(C)CCOC(c1ccccc1)c1ccccc1 [Diphenhydramine]

Source: patent EP4678627A1, “NOVEL FERROPTOSIS INHIBITORS” (Universiteit Antwerpen, priority 2024, dated 2026)
